Construct, isoform or probe ends are uncertain for at least one entry. At least one verdict rests on a figure or table, not on a statement of the authors.
Biological target: alpha-synuclein (α-Syn) (UniProt P37840)
Assay: fluorescence turn-on sensor (FRET, Eu-MOF@Au-Aptamer)
Settings: aptamer on AuNP in Eu-MOF, range 0.0005-1 ng/mL, LOD 0.04 pg/mL (not a Kd); 5'-SH; on gold nanoparticles, loaded in Eu-MOF; sensor in aqueous solution, emission read at 545 nm; single-stranded DNA

“TTTTTGGTGGCTGGAGGGGGGGCGCGAACG [α-Syn aptamer]”: binds.
